According to patent US9803244:
No constants are given. Whether binding was seen depends on the method and setting. In cells and extracts the contact can be indirect. Some binding calls cover weakened binding; strength is not graded here. Tags and fused reporters may be left off the sequences shown.

B1: Myc-tagged CDH26 (cadherin-like 26), expressed from pCDH26-MYC (protein, UniProt Q8IXH8 28-832, looked up, not shown: small tags and cut ends)
chain: DSVQQETDDLTKQTKEKIYQPLRRSKRRWVITTLELEEEDPGPFPKLIGELFNNMSYNMSLMYLISGPGVDEYPEIGLFSLEDHENGRIYVHRPVDREMTPSFTVYFDVVERSTGKIVDTSLIFNIRISDVNDHAPQFPEKEFNITVQENQSAGQPIFQMLAVDLDEENTPNSQVLYFLISQTPLLKESGFRVDRLSGEIRLSGCLDYETAPQFTLLIRARDCGEPSLSSTTTVHVDVQEGNNHRPAFTQENYKVQIPEGRASQGVLRLLVQDRDSPFTSAWRAKFNILHGNEEGHFDISTDPETNEGILNVIKPLDYETRPAQSLIIVVENEERLVFCERGKLQPPRKAAASATVSVQVTDANDPPAFHPQSFIVNKEEGARPGTLLGTFNAMDPDSQIRYELVHDPANWVSVDKNSGVVITVEPIDRESPHVNNSFYVIIIHAVDDGFPPQTATGTLMLFLSDINDNVPTLRPRSRYMEVCESAVHEPLHIEAEDPDLEPFSDPFTFELDNTWGNAEDTWKLGRNWGQSVELLTLRSLPRGNYLVPLFIGDKQGLSQKQTVHVRICPCASGLTCVELADAEVGLHVGALFPVCAAFVALAVALLFLLRCYFVLEPKRHGCSVSNDEGHQTLVMYNAESKGTSAQTWSDVEGQRPALLICTAAAGPTQGVKDLEEVPPSAASQSAQARCALGSWGYGKPFEPRSVKNIHSTPAYPDATMHRQLLAPVEGRMAETLNQKLHVANVLEDDPGYLPHVYSEEGECGGAPSLSSLASLEQELQPDLLDSLGSKATPFEEIYSESGVPS
modifications: N-glycosylated in HEK 293T cells (sites not given; shown for HA-tagged CDH26)
B2: HA-tagged CDH26 (cadherin-like 26), expressed from pCDH26-HA (protein, UniProt Q8IXH8 28-832, looked up, not shown: small tags and cut ends)
chain: B1 chain
modifications: N-glycosylated in HEK 293T cells (PNGase F shift; sites not given)

Columns and labels:
[1] = target: T1, HA-tagged CDH26 (cadherin-like 26), expressed from pCDH26-HA (UniProt Q8IXH8); assay: co-immunoprecipitation (anti-HA IP, anti-myc western blot) from lysates of co-transfected HEK 293T cells
T1 sequence (N-glycosylated in HEK 293T cells (PNGase F shift; sites not given), looked up): B1 chain

[2] = target: T2, Myc-tagged CDH26 (cadherin-like 26), expressed from pCDH26-MYC (UniProt Q8IXH8); assay: reciprocal co-immunoprecipitation (anti-myc IP, anti-HA western blot) from lysates of co-transfected HEK 293T cells
T2 sequence (N-glycosylated in HEK 293T cells (sites not given; shown for HA-tagged CDH26), looked up): B1 chain

| Binder | binding [1] | binding [2] |
| --- | --- | --- |
| B1 | binds |  |
| B2 |  | binds |
